Values joined by “and” are separate entries in the source; they are usually repeats but may differ in a detail not shown here. Identical values can stand only once. The list shows a part of the results. Single wells; the ratio to wells without odorant was worked out here, and repeats agree poorly.
The compounds below were run on OR6K3 clone 1485 (assay: odorant receptor activation (CRE luciferase / Renilla) (fold of no-odor wells); higher = more activation). Settings: 100 µM.

SMILES | odorant receptor activation
CCCCCC(C)=O [2-heptanone] | 0.75 and 0.836
COc1cc(C)ccc1O [2-methoxy-4-methylphenol] | 0.797
O=C1CCCCCCCCCCCCCCO1 [pentadecalactone] | 1.04
CC(C)(C)c1ccc(CCC=O)cc1 [bourgeonal] | 0.823
CCCCCCOC(=O)CCC [hexyl butyrate] | 1.02 and 0.98
CC12C=CCC1C1CCC3=CC(=O)CCC3(C)C1CC2 (stereo not drawn) [androstadienone] | 1.16 and 1.27
CC12CCC(CC1)C(C)(C)O2 [cineole] | 0.736
CC1=NC(C)SC1C (stereo not drawn) | 0.879 and 1.15
CCCC(=O)O [butyric acid] | 0.727
COc1ccccc1O [guaiacol] | 1.19 and 1.36
O=C1CCCCC1 [Cyclohexanone] | 0.521 and 1.09
CCCCCCCOC(C)=O [heptyl acetate] | 1.18 and 1.21
CC(=O)c1ccccc1 [acetophenone] | 0.69 and 0.803
CCCCCOC(C)=O [n-amyl acetate] | 0.421 and 0.81
CCCCCCCCC=O [nonyl aldehyde] | 0.879
CC(C)CC(=O)O [isovaleric acid] | 0.819
CC(C)C=O [isobutyraldehyde] | 1.21 and 1
CCCCCCCC=O [octyl aldehyde] | 1.21
CC1=CCC(C(C)(C)O)CC1 (stereo not drawn) [terpineol] | 0.829
CC12C=CCC1C1CCC3CC(=O)CCC3(C)C1CC2 (stereo not drawn) [androstenone] | 0.987
CC=Cc1ccc(O)c(OC)c1 [isoeugenol] | 1.26 and 1.81
CC/C=C\CCO [cis-3-hexen-1-ol] | 0.798
CCCCCCCCCCC=O [undecanal] | 1.16
COC(=O)c1ccccc1 [methyl benzoate] | 0.506 and 0.925
C=C(C)C1CC=CCC1 (stereo not drawn) [r-limonene] | 1.02 and 0.483 and 0.894

Each compound was assayed on OR6K6 clone 1348 in the same assay as above. Settings: 100 µM.

SMILES | odorant receptor activation
CCCCCC(C)=O [2-heptanone] | 0.784 and 0.555
COc1cc(C)ccc1O [2-methoxy-4-methylphenol] | 0.874
O=C1CCCCCCCCCCCCCCO1 [pentadecalactone] | 0.749
CC(C)(C)c1ccc(CCC=O)cc1 [bourgeonal] | 0.693
CCCCCCOC(=O)CCC [hexyl butyrate] | 1.24 and 0.97
CC12C=CCC1C1CCC3=CC(=O)CCC3(C)C1CC2 (stereo not drawn) [androstadienone] | 0.658 and 0.637
CC12CCC(CC1)C(C)(C)O2 [cineole] | 0.966
CC1=NC(C)SC1C (stereo not drawn) | 0.854 and 0.827
CCCC(=O)O [butyric acid] | 0.744
COc1ccccc1O [guaiacol] | 0.733 and 0.805
O=C1CCCCC1 [Cyclohexanone] | 0.707 and 0.7
CCCCCCCOC(C)=O [heptyl acetate] | 0.648 and 0.564
CC(=O)c1ccccc1 [acetophenone] | 0.918 and 0.579
CCCCCOC(C)=O [n-amyl acetate] | 0.76 and 0.578
CCCCCCCCC=O [nonyl aldehyde] | 0.909
CC1COCc2cc3c(cc21)C(C)(C)C(C)C3(C)C (stereo not drawn) [galaxolide] | 1.65 and 2.44
CC(C)CC(=O)O [isovaleric acid] | 0.958
CC(C)C=O [isobutyraldehyde] | 1.18 and 0.687
CCCCCCCC=O [octyl aldehyde] | 1.14
CC1=CCC(C(C)(C)O)CC1 (stereo not drawn) [terpineol] | 0.708
CC12C=CCC1C1CCC3CC(=O)CCC3(C)C1CC2 (stereo not drawn) [androstenone] | 1.24
CC=Cc1ccc(O)c(OC)c1 [isoeugenol] | 1.44 and 0.914
CC/C=C\CCO [cis-3-hexen-1-ol] | 0.982
CCCCCCCCCCC=O [undecanal] | 0.744
COC(=O)c1ccccc1 [methyl benzoate] | 0.797 and 0.806
C=C(C)C1CC=CCC1 (stereo not drawn) [r-limonene] | 0.792 and 0.72 and 0.571

What follows are compounds tested on OR6K6 clone 1392 in the same assay as above. Settings: 100 µM.

SMILES | odorant receptor activation
CCCCCC(C)=O [2-heptanone] | 0.961
CCCCCCC=O [heptaldehyde] | 1.11 and 0.875
COc1cc(C)ccc1O [2-methoxy-4-methylphenol] | 1.02
O=C1CCCCCCCCCCCCCCO1 [pentadecalactone] | 1.1
CC(C)(C)c1ccc(CCC=O)cc1 [bourgeonal] | 0.153
CCCCCCOC(=O)CCC [hexyl butyrate] | 0.806
CC12C=CCC1C1CCC3=CC(=O)CCC3(C)C1CC2 (stereo not drawn) [androstadienone] | 0.907
CC12CCC(CC1)C(C)(C)O2 [cineole] | 0.153
CC1=NC(C)SC1C (stereo not drawn) | 1.05
CCCC(=O)O [butyric acid] | 0.183
COc1ccccc1O [guaiacol] | 0.817
O=C1CCCCC1 [Cyclohexanone] | 1.04
CCCCCCCOC(C)=O [heptyl acetate] | 1.02
CC(=O)c1ccccc1 [acetophenone] | 0.801
CCCCCOC(C)=O [n-amyl acetate] | 0.795
CCCCCCCCC=O [nonyl aldehyde] | 0.834
CC1COCc2cc3c(cc21)C(C)(C)C(C)C3(C)C (stereo not drawn) [galaxolide] | 3.38
CC(C)CC(=O)O [isovaleric acid] | 0.61
CC(C)C=O [isobutyraldehyde] | 0.934
CCCCCCCC=O [octyl aldehyde] | 0.678
CC1=CCC(C(C)(C)O)CC1 (stereo not drawn) [terpineol] | 1.18
CC12C=CCC1C1CCC3CC(=O)CCC3(C)C1CC2 (stereo not drawn) [androstenone] | 1.16
CC=Cc1ccc(O)c(OC)c1 [isoeugenol] | 1.12
CC/C=C\CCO [cis-3-hexen-1-ol] | 0.193
CCCCCCCCCCC=O [undecanal] | 1.3
COC(=O)c1ccccc1 [methyl benzoate] | 0.855
C=C(C)C1CC=CCC1 (stereo not drawn) [r-limonene] | 1.44 and 0.978
